Binding data for three molecules are collected here from PMC6851226.

Chains of the proteins cited; added tags and fusions are not shown. Residues count along the entry.
UniProt P29317, residues 24-976: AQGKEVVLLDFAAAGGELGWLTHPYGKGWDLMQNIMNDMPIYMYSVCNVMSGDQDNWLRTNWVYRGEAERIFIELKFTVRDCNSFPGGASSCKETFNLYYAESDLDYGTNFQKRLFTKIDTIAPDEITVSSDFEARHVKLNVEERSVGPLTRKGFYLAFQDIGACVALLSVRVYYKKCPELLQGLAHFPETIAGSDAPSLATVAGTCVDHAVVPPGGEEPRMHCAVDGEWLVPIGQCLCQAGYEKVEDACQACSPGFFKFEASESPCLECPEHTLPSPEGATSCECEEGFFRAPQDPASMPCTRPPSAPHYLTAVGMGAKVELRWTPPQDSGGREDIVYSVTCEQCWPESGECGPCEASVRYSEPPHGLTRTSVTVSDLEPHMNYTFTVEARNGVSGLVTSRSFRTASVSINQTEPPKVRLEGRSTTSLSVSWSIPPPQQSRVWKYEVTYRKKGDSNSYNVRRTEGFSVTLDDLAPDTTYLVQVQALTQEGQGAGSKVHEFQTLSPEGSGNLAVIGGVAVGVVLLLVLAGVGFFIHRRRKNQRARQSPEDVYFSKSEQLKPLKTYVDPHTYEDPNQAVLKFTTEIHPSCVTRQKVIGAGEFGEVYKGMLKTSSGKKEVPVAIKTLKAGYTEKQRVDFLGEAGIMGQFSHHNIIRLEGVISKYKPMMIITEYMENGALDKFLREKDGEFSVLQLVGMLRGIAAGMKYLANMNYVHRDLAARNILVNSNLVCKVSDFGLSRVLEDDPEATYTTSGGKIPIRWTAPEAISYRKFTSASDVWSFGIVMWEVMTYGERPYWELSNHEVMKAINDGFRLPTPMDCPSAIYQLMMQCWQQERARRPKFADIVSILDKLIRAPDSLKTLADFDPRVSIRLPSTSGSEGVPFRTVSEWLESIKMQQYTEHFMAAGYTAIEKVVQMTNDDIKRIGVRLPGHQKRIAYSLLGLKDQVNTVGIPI

The target in assay [1] is T1, EphA3 (human (endogenous in primary GBM cultures)) (UniProt P29320).
T1 sequence: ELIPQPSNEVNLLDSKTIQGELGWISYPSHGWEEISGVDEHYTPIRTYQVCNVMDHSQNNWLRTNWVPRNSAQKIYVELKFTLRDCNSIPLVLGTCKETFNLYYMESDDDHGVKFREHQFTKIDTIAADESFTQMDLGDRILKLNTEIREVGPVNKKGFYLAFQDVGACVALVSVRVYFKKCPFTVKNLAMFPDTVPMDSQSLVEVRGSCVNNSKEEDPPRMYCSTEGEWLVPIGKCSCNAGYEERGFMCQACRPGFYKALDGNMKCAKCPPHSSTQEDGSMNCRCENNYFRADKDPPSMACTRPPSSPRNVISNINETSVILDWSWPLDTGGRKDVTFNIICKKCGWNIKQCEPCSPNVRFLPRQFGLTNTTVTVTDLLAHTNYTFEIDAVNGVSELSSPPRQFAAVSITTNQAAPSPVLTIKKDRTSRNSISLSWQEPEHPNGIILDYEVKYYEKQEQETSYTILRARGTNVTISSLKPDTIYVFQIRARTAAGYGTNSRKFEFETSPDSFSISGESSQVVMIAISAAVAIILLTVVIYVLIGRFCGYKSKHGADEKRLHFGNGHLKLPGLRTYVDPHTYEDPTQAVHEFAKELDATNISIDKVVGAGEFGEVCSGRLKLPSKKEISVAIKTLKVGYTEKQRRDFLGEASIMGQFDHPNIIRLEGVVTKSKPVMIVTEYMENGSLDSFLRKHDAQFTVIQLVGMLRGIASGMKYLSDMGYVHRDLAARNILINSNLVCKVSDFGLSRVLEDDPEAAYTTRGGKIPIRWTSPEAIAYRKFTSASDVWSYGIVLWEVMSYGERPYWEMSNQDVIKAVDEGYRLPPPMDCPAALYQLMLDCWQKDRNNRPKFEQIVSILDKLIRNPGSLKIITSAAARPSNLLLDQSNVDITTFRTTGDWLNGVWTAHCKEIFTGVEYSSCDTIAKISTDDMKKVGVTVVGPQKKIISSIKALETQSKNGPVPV
Briefly: co-IP; immunoprecipitation of EphA3 in GBM cells; EGFR detected in the precipitate (Online Resource 5d).

Assay [2] has as its target T1, EphA3 (human (endogenous in primary GBM cultures)). The assay can be described thus: co-IP; immunoprecipitation of EphA3 from 1 mg of lysate from four early passage primary GBM cultures; Protein G only as control; blotted for EphA2, EphA3 and glycosylated αDG.

These are yes or no findings as the source states them, for the method shown. In cells and extracts the contact can be indirect. Some results given as binding are weak or reduced against the parent protein; the word gives no strength.

Take “EGFR (from UniProt P00533 25-1210) (receptor)”: the binding entry in assay [1] is recorded as “binds”. Turning to “EphA2 (from UniProt P29317 24-976) (receptor)”, the binding result in assay [2] is on record as “binds”.

B1: glycosylated α-dystroglycan (protein, UniProt Q14118 30-653)
chain: HWPSEPSEAVRDWENQLEASMHSVLSDLHEAVPTVVGIPDGTAVVGRSFRVTIPTDLIASSGDIIKVSAAGKEALPSWLHWDSQSHTLEGLPLDTDKGVHYISVSATRLGANGSHIPQTSSVFSIEVYPEDHSELQSVRTASPDPGEVVSSACAADEPVTVLTVILDADLTKMTPKQRIDLLHRMRSFSEVELHNMKLVPVVNNRLFDMSAFMAGPGNAKKVVENGALLSWKLGCSLNQNSVPDIHGVEAPAREGAMSAQLGYPVVGWHIANKKPPLPKRVRRQIHATPTPVTAIGPPTTAIQEPPSRIVPTPTSPAIAPPTETMAPPVRDPVPGKPTVTIRTRGAIIQTPTLGPIQPTRVSEAGTTVPGQIRPTMTIPGYVEPTAVATPPTTTTKKPRVSTPKPATPSTDSTTTTTRRPTKKPRTPRPVPRVTTKVSITRLETASPPTRIRTTTSGVPRGGEPNQRPELKNHIDRVDAWVGTYFEVKIPSDTFYDHEDTTTDKLKLTLKLREQQLVGEKSWVQFNSNSQLMYGLPDSSHVGKHEYFMHATDKGGLSAVDAFEIHVHRRPQGDRAPARFKAKFVGDPALVLNDIHKKIALVKKLAFAFGDRNCSTITLQNITRG
modifications: glycosylated (glycan moieties on αDG recognised by the IIH6 mAb)
Take B1: the binding result in assay [2] is given as “binds”.
